Test results: paper PMC12664280, “Integrative transcriptomics and peptidomics approach reveals unexpectedly diverse endogenous secretory peptides in Odorrana grahami frog skin” (BMC Biology, 2025)
Values after ≈ are worked out from the molar mass of the structure shown.

System: Candida albicans CCMCC(F) 98001
Experiment: microbe, parasite or virus in culture
Format: cell-based
Details: broth microdilution, read-out: minimum inhibitory concentration (MIC), Candida albicans
Description: Ranatuerin-2P-OG1 synthesis was performed by Royobiotech Co., Ltd. (Shanghai, China) using solid-phase peptide synthesis. The crude peptide was purified by RP-HPLC and its purity was confirmed to exceed 90% via ESI-MS analysis. Antimicrobial assays with various microbial strains were conducted, including gram-positive Staphylococcus aureus ATCC 29213 and its methicillin-resistant variant (MRSA) CIB 8546, Enterococcus faecalis ATCC 29212, gram-negative Pseudomonas aeruginosa ATCC 27853 and Escherichia coli ATCC 25922, and fungal Candida albicans CCMCC(F) 98001. Bacterial cultures were maintained in cation-adjusted Mueller-Hinton broth (MHB) at 35°C for 16-20 h, whereas fungal cultures were grown in Sabouraud dextrose broth (SDB) at 28°C for 48 h.

`C[C@@H]1[C@H](O)[C@@H](C)/C=C/C=C/C=C/C=C/C=C/C=C/C=C/[C@H](O[C@@H]2O[C@H](C)[C@@H](O)[C@H](N)[C@@H]2O)C[C@@H]2O[C@](O)(C[C@@H](O)C[C@@H](O)[C@H](O)CC[C@@H](O)C[C@@H](O)CC(=O)O[C@H]1C)C[C@H](O)[C@H]2C(=O)O` [Amphotericin B, reference compound] gave an MIC of 2 µg/mL (≈ 2.16 µM).
